Data: article PMC4873633, “Dietary salt regulates uroguanylin expression and signaling activity in the kidney, but not in the intestine” (Physiological Reports, 2016)

B1: prouroguanylin (protein, UniProt P70668 22-106, looked up)
pro-form: VYIKYHGFQVQLESVKKLNELEEKQMSDPQQQKSGLLPDVCYNPALPLDLQPVCASQEAASTFKALRTIATDECELCINVACTGC
modifications: pro-form
notes: Recombinant rat proUgn, Ironwood Pharmaceuticals; also endogenous propeptide in plasma
B2: proguanylin (protein, UniProt P28902 24-115, looked up)
pro-form: VQDGDLSFPLESVKQLKHLREVQEPTLMSHKKFALRLPKPVAPELCSQSAFPEALRPLCEKPNAEEILQRLEAIAQDPNTCEICAYAACTGC
modifications: pro-form
notes: purified recombinant proGn

What was measured:
[1] = Plasma proUgn by quantitative western blot; format: in vivo, rat; settings: endogenous
[2] = Peptides detectable in urine; format: in vivo, rat; settings: for Presence in urine: high salt, urine overloaded by a factor of 4, C-18 HPLC, binding assay

| Molecule | Effect of dietary salt on plasma proUgn ([1]; 3 AM, normal, 5 days low salt, 1, 2 or 5 days high salt) | Nocturnal plasma proUgn higher than diurnal ([1]; NS diet, P < 0.05) | Effect of fasting on plasma proUgn ([1]; standard chow vs 12–24 h fast) | Presence in urine [2] | Presence of intact proUgn in rat urine ([2]; western blot, normal vs five-sixths renal ablation) |
| --- | --- | --- | --- | --- | --- |
| B1 | strikingly independent of salt intake | 30–40% | indistinguishable from those in animals that had been fasted | not present in urine at detectable levels | detectable in rat urine only after experimentally induced kidney failure |
| B2 |  |  |  | not present in urine at detectable levels |  |
